Data from PubChem BioAssay (NCATS).
The shares of active, inactive and inconclusive entries below differ from those in the screen. Where the call is inconclusive, the potency comes from a doubtful curve fit. Calls of active or inactive are those of the source. The call rests on the fitted dose curve; in most records, active means well fitted cell-killing curve with a large enough effect; inconclusive means small, poorly fitted or top-dose-only effect, or effect the other way; inactive means no such curve, though single readings can be large or run the other way.

Assay: Quantitative High-Throughput drug screen in 47 multiple myeloma cell lines against the NCATS MIPE library collection: SKMM1_PLB cell viability assay (AID 1919863)
Conditions: SKMM1 myeloma viability, CellTiter-Glo ATP, 48 h; viability: hits give low values
How it was run: (§1)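 Cells were exposed to library compounds for 48 hours, after which ATP was measured by CellTiter-Glo. Signal was taken as median relative luminescence units.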
Further: nearly all actives have a fitted effect of over 35% in size.
Potency means the concentration at half of the fitted maximal effect.

Structure (SMILES) | Potency | viability
COC(=O)C1=CO[C@@H](O)[C@@H]2C(CO)=CC[C@@H]12 | inconclusive: 33.2 µM [cytotoxic, single point] | –
Cc1ccc(F)c(NC(=O)Nc2ccc(-c3cccc4[nH]nc(N)c34)cc2)c1 | inconclusive: 29.6 µM [cytotoxic, single point] | –
C=C1C(=O)[C@@]23C(CC[C@@H]1[C@H]2O)[C@@]12CO[C@]3(O)[C@@H](O)[C@@H]1C(C)(C)CC[C@@H]2O (stereo not given in full) | active: 13.2 µM | –
O=C(O)c1ccccc1C(=O)Nc1ccc(-c2ccccc2)cc1 | inconclusive: 0.0026 µM [rising, full curve, poor fit] | –
COc1ccc(-c2coc3cc(O)cc(O)c3c2=O)cc1 | inconclusive: 0.0015 µM [rising, full curve, poor fit] | –
NC1CCC(Nc2nc(Nc3ccc(C(=O)N4CCCCC4)cc3)c3ncn(-c4cccc(F)c4)c3n2)CC1 (stereo not given) | – | inactive: 125%
Cc1ccnc2c1NC(=O)c1cccnc1N2C1CC1 | inconclusive: 0.0743 µM [rising, full curve, poor fit] | –
CC(C)(O)c1cc2nc(-c3cnc(N)nc3)nc(N3CCOCC3)c2s1 | active: 0.235 µM | –

Assay: Quantitative High-Throughput drug screen in 47 multiple myeloma cell lines against the NCATS MIPE library collection: U266_ATCC cell viability assay (AID 1919864)
Conditions: U266 myeloma viability, CellTiter-Glo ATP luminescence, 48 h; series mostly up to 45.8 µM
How it was run: as §1

Structure (SMILES) | Potency
CN(C)c1cc(NC(=O)CNC(C)(C)C)c(O)c2c1C[C@@H]1C[C@H]3[C@H](N(C)C)C(=O)C(C(N)=O)=C(O)[C@@]3(O)C(=O)C1=C2O | inactive
COc1ccc2cc([C@H](C)C(=O)O)ccc2c1 | inactive
COC(=O)Nc1ccc(-c2nc(N3CCOCC3)c3cnn(C4CCN(C(=O)OC)CC4)c3n2)cc1 | active: 1.32 µM
O=c1c(O)c(-c2ccc(O)c(O)c2)oc2cc(O)ccc12 | inconclusive: 29.6 µM [cytotoxic, single point]
O=NN(CCCl)C(=O)NCCCl | inconclusive: 10.5 µM [rising, partial curve, poor fit]
CC1=C(CO)C(=O)O[C@@H]([C@@H](C)[C@H]2CC[C@H]3[C@@H]4C[C@H]5O[C@]56[C@@H](O)C=CC(=O)[C@]6(C)[C@@H]4CC[C@]23C)C1 | active: 0.264 µM
C=C(c1ccc(C(=O)O)cc1)c1cc2c(cc1C)C(C)(C)CCC2(C)C | inactive
COc1ccc2c3c1OC1C[C@@H](O)C=C[C@@]31CCN(C)C2 (stereo not given in full) | active: 4.18 µM
CN(C)c1ccc2nc3ccc(=[N+](C)C)cc-3sc2c1 | active: 8.33 µM
N[C@@H](Cc1c[nH]c2ccc(O)cc12)C(=O)O | inconclusive: 3.72 µM [cytotoxic, full curve, poor fit]
CN1CCC(=C2c3ccccc3CCc3sccc32)CC1 | inconclusive: 37.2 µM [cytotoxic, single point]
CCOC(=O)N1CCN([N+]([O-])=NOc2ccc([N+](=O)[O-])cc2[N+](=O)[O-])CC1 | active: 2.64 µM
COC(=O)C1=CO[C@@H](O)[C@@H]2C(CO)=CC[C@@H]12 | inconclusive: 26.4 µM [cytotoxic, single point]
C=C1C(=O)[C@@]23C(CC[C@@H]1[C@H]2O)[C@@]12CO[C@]3(O)[C@@H](O)[C@@H]1C(C)(C)CC[C@@H]2O (stereo not given in full) | active: 8.33 µM
O=C(O)c1ccccc1C(=O)Nc1ccc(-c2ccccc2)cc1 | inactive
COc1ccc(-c2coc3cc(O)cc(O)c3c2=O)cc1 | inconclusive: 0.0037 µM [rising, full curve, poor fit]
O=C(NCc1ccccc1)c1csc(Nc2ccncn2)n1 | active: 18.7 µM
